This is an account of results in PubChem BioAssay AID488835 (Broad Institute, 2010).

The chains behind the UniProt entries cited, without tags or fusion partners. Residues count along the entry.
UniProt Q9H3R0, 1-420 limits assumed: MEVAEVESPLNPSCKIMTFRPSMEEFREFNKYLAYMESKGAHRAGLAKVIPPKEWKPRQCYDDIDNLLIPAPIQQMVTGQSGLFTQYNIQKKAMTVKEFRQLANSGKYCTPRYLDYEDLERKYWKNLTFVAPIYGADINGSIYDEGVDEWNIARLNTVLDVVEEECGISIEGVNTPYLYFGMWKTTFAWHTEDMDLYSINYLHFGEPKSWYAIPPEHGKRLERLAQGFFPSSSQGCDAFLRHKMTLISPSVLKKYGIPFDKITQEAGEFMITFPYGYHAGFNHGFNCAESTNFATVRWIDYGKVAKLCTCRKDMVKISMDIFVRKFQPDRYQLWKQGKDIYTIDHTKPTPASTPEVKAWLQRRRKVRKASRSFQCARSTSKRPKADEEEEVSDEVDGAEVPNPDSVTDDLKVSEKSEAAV

Structures are written as SMILES. Out of some 1,400 compounds screened, about 140 (10%) were called active.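 How the source made its calls: active means Half-maximal inhibitory dose from the fit at or below ten times the top valid tested dose; inconclusive means Invalid fit, or flat curve showing 30 to 70% inhibition; inactive means the rest.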 This is a selection; strong and weak results do not stand in their true shares. Measured potencies and affinities stand elsewhere.

In this assay the target is Lysine-specific demethylase 4C (Homo sapiens) (UniProt Q9H3R0). As to the kind of experiment: inhibition of JMJD2C H3K9me3 demethylation – biochemical, DELFIA europium, cherry-picked samples, dose response (AID 488835).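 Further: signal is the H3K9me2 demethylation product detected by a dimethyl-specific antibody.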 The conditions noted are these: GST-JMJD2C(1-420); at 6 µM (top of the series) unless noted.
Regarding `Cn1c(=O)[nH]c(=O)c2[nH]c(NCCCN3CCOCC3)nc21`, the activity change, negative = inhibition is inactive: -6.83%. As for `Cc1cccc(Oc2nc(CN3CCOCC3)nc3sc4c(c23)CCCC4)c1`, the figure is inactive: 2.57%; as for `COc1ccc(CN2CCCCC2C)c(C)c1C` (stereo unspecified), inactive: 2.27%; as for `COc1ccccc1C(c1nnnn1Cc1ccccc1)N1CCN(C2CCCC2)CC1` (stereo unspecified), inactive: -4.86%. For `CCOc1cccc(SCc2noc(C(=O)NC(C)C)c2C(=O)O)c1`, the activity change, negative = inhibition is inactive: 2.92%. Take `O=c1oc2ccccc2c2c1C(c1ccc(Cl)cc1)Nc1ccc3ccccc3c1-2` (stereo unspecified): the activity change, negative = inhibition is inactive: -0.0613%. With `O=C(Nc1ccccc1)N(CCc1nc2ccccc2[nH]1)C1CCCC1` the figure was inactive: -1.41%; with `CC1SC(=NC(=O)C(C)N2C(=O)c3ccccc3C2=O)NC1=O` (stereo unspecified), inactive: 1.54%; with `CC(C)(C)OC(=O)CNC(=O)c1[nH]cnc1C(=O)N[C@@H](CCCCN)C(=O)OC(C)(C)C`, inactive: 1.96%.

As for `COc1cc(C#N)c(N=C(SCC#N)N2CCOCC2)cc1OC`, the activity change, negative = inhibition is inactive: 0.963%. With `C#CCOCCOCCOCCNc1nc(N2CCN(C(=O)[C@H](CCC(=O)O)n3cc([C@@H](N)[C@H](C)CC)nn3)CC2)nc(N2CCN(C(=O)[C@H](CCCCN)n3cc([C@@H](N)CC(N)=O)nn3)CC2)n1` the figure was inactive: -0.561%; with `CCN(C[C@H]1N[C@@](C)(C(=O)OC)[C@H]2C(=O)N(Cc3ccccc3)C(=O)[C@@H]12)C(=O)Nc1ccc(Cl)cc1`, inactive: 2.49%; with `Cc1cccc(OCc2nnc(SCC(=O)Nc3cccc(C(=O)N4CCOCC4)c3)o2)c1C`, inactive: 5.38%. Turning to `COC(=O)c1cc(C#N)c(OC)nc1C`, the activity change, negative = inhibition is inactive: 3.36%. With `O=C(NCC(c1ccco1)N1CCN(c2ccc(F)cc2)CC1)OCc1ccccc1` (stereo unspecified) the figure was inactive: 6.88%; with `Cc1ccc(-n2nnc3c(SCC(=O)NCC4CCCO4)ncnc32)cc1` (stereo unspecified), inactive: 8.21%. With `Cc1noc(C)c1NC(=O)N(C)C[C@H]1Oc2ccc(NC(=O)C3CCCCC3)cc2C(=O)N([C@H](C)CO)C[C@@H]1C` the figure was inactive: 3.94%; with `CC(C)(C)C1CCc2[nH]c3ccccc3c(=O)c2C1` (stereo unspecified), inactive: -8.54%.

For `O=S(=O)(Nc1ncnc2sc3c(c12)CCC3)c1ccc(Cl)s1`, the activity change, negative = inhibition is inactive: -2.05%. As for `O=C(Cn1cnc2ccccc2c1=O)Nc1ccc2c(c1)CCC2`, the figure is inactive: 1.54%; as for `COc1ccc(N(Cc2cc3cccc(C)c3[nH]c2=O)S(C)(=O)=O)cc1`, inactive: 0.542%. As for `c1csc(-c2nc3nc4ccccc4nc3n2Cc2ccc3c(c2)OCO3)c1`, the figure is inactive: 6.94%; as for `Cc1ccc(NC(=O)CSc2cccc[n+]2[O-])c([N+](=O)[O-])c1`, inactive: 2.02%; as for `Cc1nnsc1C(=O)NNS(=O)(=O)c1ccccc1`, inactive: 10.9%. As for `CCN(C(=O)c1sc(N)c(C#N)c1C)C1CCCCC1`, the figure is inactive: 4.45%; as for `Cc1noc(C)c1NC(=O)Nc1ccc2c(c1)C(=O)N([C@H](C)CO)C[C@H](C)[C@@H](CN(C)C(=O)NC1CCCCC1)O2`, inactive: 1.97%.
